Assay results: publication PMC12025393, “Neuregulin-1 (NRG1) Binds to the Allosteric Binding Site (Site 2) and Suppresses Allosteric Integrin Activation by Inflammatory Cytokines: A Potential Mechanism of Anti-Inflammatory and Anti-Fibrosis Action of NRG1” (Cells, 2025)
No constants are given. Whether binding was seen depends on the method and setting. Some binding calls cover weakened binding; strength is not graded here. Sequences can lack the tags named with a protein.

The chains behind the UniProt entries cited, without tags or fusion partners. Where a name states a change or a piece, a line headed by the entry shows the natural chain unless it says otherwise.
UniProt P08514: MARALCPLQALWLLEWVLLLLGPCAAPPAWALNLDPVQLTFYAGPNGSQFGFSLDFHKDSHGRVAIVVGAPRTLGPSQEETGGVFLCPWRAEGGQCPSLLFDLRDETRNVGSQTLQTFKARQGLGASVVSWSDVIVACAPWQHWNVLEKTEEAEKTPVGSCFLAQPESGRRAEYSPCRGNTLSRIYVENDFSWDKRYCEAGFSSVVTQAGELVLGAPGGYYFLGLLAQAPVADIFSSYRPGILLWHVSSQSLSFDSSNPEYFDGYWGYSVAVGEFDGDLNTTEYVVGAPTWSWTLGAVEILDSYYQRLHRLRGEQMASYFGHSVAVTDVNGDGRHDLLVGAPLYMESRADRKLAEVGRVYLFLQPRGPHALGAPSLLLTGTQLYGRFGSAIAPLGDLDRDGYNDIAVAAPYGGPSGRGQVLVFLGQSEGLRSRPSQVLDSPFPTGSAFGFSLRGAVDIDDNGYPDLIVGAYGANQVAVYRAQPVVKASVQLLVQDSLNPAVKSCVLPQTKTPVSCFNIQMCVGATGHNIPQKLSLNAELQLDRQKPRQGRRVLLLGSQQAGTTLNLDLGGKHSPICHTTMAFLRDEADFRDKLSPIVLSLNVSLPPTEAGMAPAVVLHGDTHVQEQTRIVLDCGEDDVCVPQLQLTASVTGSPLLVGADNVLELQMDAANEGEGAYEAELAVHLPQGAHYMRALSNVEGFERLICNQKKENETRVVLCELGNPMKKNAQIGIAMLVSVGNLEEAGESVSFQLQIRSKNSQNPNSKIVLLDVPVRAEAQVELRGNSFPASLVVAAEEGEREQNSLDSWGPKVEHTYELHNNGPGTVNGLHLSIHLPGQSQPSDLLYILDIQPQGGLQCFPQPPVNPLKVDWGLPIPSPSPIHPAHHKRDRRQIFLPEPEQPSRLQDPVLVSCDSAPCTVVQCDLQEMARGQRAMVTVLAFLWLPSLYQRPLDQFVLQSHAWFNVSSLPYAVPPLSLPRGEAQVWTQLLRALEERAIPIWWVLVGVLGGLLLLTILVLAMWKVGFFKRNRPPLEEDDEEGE

T1: WT NRG1 EGF-like domain
T1 construct: also called NRG1 EGF domain; neuregulin-1; source: endotoxin-free E. coli BL21 (DE3) pLysS Clear-coli, purified (Ni-NTA in 8M urea, re-folded)
T1 chain: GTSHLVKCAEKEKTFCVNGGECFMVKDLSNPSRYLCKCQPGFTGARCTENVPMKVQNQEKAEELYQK


What was measured:
[1] = target: cell-surface integrin αIIbβ3 on CHO cells (UniProt P08514); assay: flow cytometry on cells; αIIbβ3-CHO cells in HEPES-Tyrodes buffer/0.02% BSA with 1 mM Ca2+, chemokines (0.1 μg/mL) 30 min on ice with or without NRG1 3KE (20 μg/mL), then FITC-labeled γC390-411 (50 μg/mL) 60 min at room temperature; mean fluorescent intensity; only the binder purified
WT NRG1 EGF-like domain = target: T1, WT NRG1 EGF-like domain; assay: ELISA; NRG1 (20 μg/mL in PBS) immobilised to wells, blocked with 0.1% BSA; peptides fused to GST in PBS/Tween20 (0.05%), 1 h at room temperature; HRP-conjugated anti-GST antibody; signals with scrambled β3 site 2 peptide subtracted; both purified

Row | binding [1] | binding (WT NRG1 EGF-like domain) | Binder
1 | binds | – | NRLTIGEGQQHHLGGAKQAGDV (FITC label (site not stated)) [FITC-labeled γC390-411 fused to GST]
2 | – | binds weakly | CKLGGIVLPNDGQSHLENNMYTMSHYYC (cyclic (disulfide between C268 and C295, as designed for the β3 peptide)) [28-mer cyclic β1 peptide fused to GST]
